PMC12989817
These are yes or no findings as the source states them, for the method shown. In cells and extracts the contact can be indirect. Here binding means that the protein was enriched with, or labelled near, the bait; the list need not be complete.

Molecular target: N-terminal Kv1.3-TurboID (V5-TurboID-Kv1.3 fusion) (human) (UniProt P22001)
Experiment: proximity labelling; TurboID fused to Kv1.3, stably expressed in Jurkat T-cells; 200 μM biotin for 1 h; lysis in 8 M urea; biotinylated proteins enriched on streptavidin magnetic beads; label-free quantitative MS against untransduced Jurkat T-cells or between lines (>4-fold, p<0.05; n=3)

Binder	binding
TNPO2 (protein, UniProt O14787 1-897) MDWQPDEQGLQQVLQLLKDSQSPNTATQRIVQDKLKQLNQFPDFNNYLIFVLTRLKSEDEPTRSLSGLILKNNVKAHYQSFPPPVADFIKQECLNNIGDASSLIRATIGILITTIASKGELQMWPELLPQLCNLLNSEDYNTCEGAFGALQKICEDSSELLDSDALNRPLNIMIPKFLQFFKHCSPKIRSHAIACVNQFIMDRAQALMDNIDTFIEHLFALAVDDDPEVRKNVCRALVMLLEVRIDRLIPHMHSIIQYMLQRTQDHDENVALEACEFWLTLAEQPICKEVLASHLVQLIPILVNGMKYSEIDIILLKGDVEEDEAVPDSEQDIKPRFHKSRTVTLPHEAERPDGSEDAEDDDDDDALSDWNLRKCSAAALDVLANVFREELLPHLLPLLKGLLFHPEWVVKESGILVLGAIAEGCMQGMVPYLPELIPHLIQCLSDKKALVRSIACWTLSRYAHWVVSQPPDMHLKPLMTELLKRILDGNKRVQEAACSAFATLEEEACTELVPYLSYILDTLVFAFGKYQHKNLLILYDAIGTLADSVGHHLNQPEYIQKLMPPLIQKWNELKDEDKDLFPLLECLSSVATALQSGFLPYCEPVYQRCVTLVQKTLAQAMMYTQHPEQYEAPDKDFMIVALDLLSGLAEGLGGHVEQLVARSNIMTLLFQCMQDSMPEVRQSSFALLGDLTKACFIHVKPCIAEFMPILGTNLNPEFISVCNNATWAIGEICMQMGAEMQPYVQMVLNNLVEIINRPNTPKTLLENTGRLTSPSAIPAITIGRLGYVCPQEVAPMLQQFIRPWCTSLRNIRDNEEKDSAFRGICMMIGVNPGGVVQDFIFFCDAVASWVSPKDDLRDMFYKILHGFKDQVGEDNWQQFSEQFPPLLKERLAAFYGV	binds
RGS14 (protein, UniProt O43566 1-566) MPGKPKHLGVPNGRMVLAVSDGELSSTTGPQGQGEGRGSSLSIHSLPSGPSSPFPTEEQPVASWALSFERLLQDPLGLAYFTEFLKKEFSAENVTFWKACERFQQIPASDTQQLAQEARNIYQEFLSSQALSPVNIDRQAWLGEEVLAEPRPDMFRAQQLQIFNLMKFDSYARFVKSPLYRECLLAEAEGRPLREPGSSRLGSPDATRKKPKLKPGKSLPLGVEELGQLPPVEGPGGRPLRKSFRRELGGTANAALRRESQGSLNSSASLDLGFLAFVSSKSESHRKSLGSTEGESESRPGKYCCVYLPDGTASLALARPGLTIRDMLAGICEKRGLSLPDIKVYLVGNEQALVLDQDCTVLADQEVRLENRITFELELTALERVVRISAKPTKRLQEALQPILEKHGLSPLEVVLHRPGEKQPLDLGKLVSSVAAQRLVLDTLPGVKISKARDKSPCRSQGCPPRTQDKATHPPPASPSSLVKVPSSATGKRQTCDIEGLVELLNRVQSSGAHDQRGLLRKEDLVLPEFLQLPAQGPSSEETPPQTKSAAQPIGGSLNSTTDSAL	binds
FLOT1 (protein, UniProt O75955 1-427) MFFTCGPNEAMVVSGFCRSPPVMVAGGRVFVLPCIQQIQRISLNTLTLNVKSEKVYTRHGVPISVTGIAQVKIQGQNKEMLAAACQMFLGKTEAEIAHIALETLEGHQRAIMAHMTVEEIYKDRQKFSEQVFKVASSDLVNMGISVVSYTLKDIHDDQDYLHSLGKARTAQVQKDARIGEAEAKRDAGIREAKAKQEKVSAQYLSEIEMAKAQRDYELKKAAYDIEVNTRRAQADLAYQLQVAKTKQQIEEQRVQVQVVERAQQVAVQEQEIARREKELEARVRKPAEAERYKLERLAEAEKSQLIMQAEAEAASVRMRGEAEAFAIGARARAEAEQMAKKAEAFQLYQEAAQLDMLLEKLPQVAEEISGPLTSANKITLVSSGSGTMGAAKVTGEVLDILTRLPESVERLTGVSISQVNHKPLRTA	binds
PRPF3 (protein, UniProt O43395 1-683) MALSKRELDELKPWIEKTVKRVLGFSEPTVVTAALNCVGKGMDKKKAADHLKPFLDDSTLRFVDKLFEAVEEGRSSRHSKSSSDRSRKRELKEVFGDDSEISKESSGVKKRRIPRFEEVEEEPEVIPGPPSESPGMLTKLQIKQMMEAATRQIEERKKQLSFISPPTPQPKTPSSSQPERLPIGNTIQPSQAATFMNDAIEKARKAAELQARIQAQLALKPGLIGNANMVGLANLHAMGIAPPKVELKDQTKPTPLILDEQGRTVDATGKEIELTHRMPTLKANIRAVKREQFKQQLKEKPSEDMESNTFFDPRVSIAPSQRQRRTFKFHDKGKFEKIAQRLRTKAQLEKLQAEISQAARKTGIHTSTRLALIAPKKELKEGDIPEIEWWDSYIIPNGFDLTEENPKREDYFGITNLVEHPAQLNPPVDNDTPVTLGVYLTKKEQKKLRRQTRREAQKELQEKVRLGLMPPPEPKVRISNLMRVLGTEAVQDPTKVEAHVRAQMAKRQKAHEEANAARKLTAEQRKVKKIKKLKEDISQGVHISVYRVRNLSNPAKKFKIEANAGQLYLTGVVVLHKDVNVVVVEGGPKAQKKFKRLMLHRIKWDEQTSNTKGDDDEESDEEAVKKTNKCVLVWEGTAKDRSFGEMKFKQCPTENMAREHFKKHGAEHYWDLALSESVLESTD	binds
PLRG1 (protein, UniProt O43660 1-514) MVEEVQKHSVHTLVFRSLKRTHDMFVADNGKPVPLDEESHKRKMAIKLRNEYGPVLHMPTSKENLKEKGPQNATDSYVHKQYPANQGQEVEYFVAGTHPYPPGPGVALTADTKIQRMPSESAAQSLAVALPLQTKADANRTAPSGSEYRHPGASDRPQPTAMNSIVMETGNTKNSALMAKKAPTMPKPQWHPPWKLYRVISGHLGWVRCIAVEPGNQWFVTGSADRTIKIWDLASGKLKLSLTGHISTVRGVIVSTRSPYLFSCGEDKQVKCWDLEYNKVIRHYHGHLSAVYGLDLHPTIDVLVTCSRDSTARIWDVRTKASVHTLSGHTNAVATVRCQAAEPQIITGSHDTTIRLWDLVAGKTRVTLTNHKKSVRAVVLHPRHYTFASGSPDNIKQWKFPDGSFIQNLSGHNAIINTLTVNSDGVLVSGADNGTMHLWDWRTGYNFQRVHAAVQPGSLDSESGIFACAFDQSESRLLTAEADKTIKVYREDDTATEETHPVSWKPEIIKRKRF	binds
SART1 (protein, UniProt O43290 1-800) MGSSKKHRGEKEAAGTTAAAGTGGATEQPPRHREHKKHKHRSGGSGGSGGERRKRSRERGGERGSGRRGAEAEARSSTHGRERSQAEPSERRVKREKRDDGYEAAASSKTSSGDASSLSIEETNKLRAKLGLKPLEVNAIKKEAGTKEEPVTADVINPMALRQREELREKLAAAKEKRLLNQKLGKIKTLGEDDPWLDDTAAWIERSRQLQKEKDLAEKRAKLLEEMDQEFGVSTLVEEEFGQRRQDLYSARDLQGLTVEHAIDSFREGETMILTLKDKGVLQEEEDVLVNVNLVDKERAEKNVELRKKKPDYLPYAEDESVDDLAQQKPRSILSKYDEELEGERPHSFRLEQGGTADGLRERELEEIRAKLRLQAQSLSTVGPRLASEYLTPEEMVTFKKTKRRVKKIRKKEKEVVVRADDLLPLGDQTQDGDFGSRLRGRGRRRVSEVEEEKEPVPQPLPSDDTRVENMDISDEEEGGAPPPGSPQVLEEDEAELELQKQLEKGRRLRQLQQLQQLRDSGEKVVEIVKKLESRQRGWEEDEDPERKGAIVFNATSEFCRTLGEIPTYGLAGNREEQEELMDFERDEERSANGGSESDGEENIGWSTVNLDEEKQQQDFSASSTTILDEEPIVNRGLAAALLLCQNKGLLETTVQKVARVKAPNKSLPSAVYCIEDKMAIDDKYSRREEYRGFTQDFKEKDGYKPDVKIEYVDETGRKLTPKEAFRQLSHRFHGKGSGKMKTERRMKKLDEEALLKKMSSSDTPLGTVALLQEKQKAQKTPYIVLSGSGKSMNANTITK	binds
HTATSF1 (protein, UniProt O43719 1-755) MSGTNLDGNDEFDEQLRMQELYGDGKDGDTQTDAGGEPDSLGQQPTDTPYEWDLDKKAWFPKITEDFIATYQANYGFSNDGASSSTANVEDVHARTAEEPPQEKAPEPTDARKKGEKRKAESGWFHVEEDRNTNVYVSGLPPDITVDEFIQLMSKFGIIMRDPQTEEFKVKLYKDNQGNLKGDGLCCYLKRESVELALKLLDEDEIRGYKLHVEVAKFQLKGEYDASKKKKKCKDYKKKLSMQQKQLDWRPERRAGPSRMRHERVVIIKNMFHPMDFEDDPLVLNEIREDLRVECSKFGQIRKLLLFDRHPDGVASVSFRDPEEADYCIQTLDGRWFGGRQITAQAWDGTTDYQVEETSREREERLRGWEAFLNAPEANRGLRRSDSVSASERAGPSRARHFSEHPSTSKMNAQETATGMAFEEPIDEKKFEKTEDGGEFEEGASENNAKESSPEKEAEEGCPEKESEEGCPKRGFEGSCSQKESEEGNPVRGSEEDSPKKESKKKTLKNDCEENGLAKESEDDLNKESEEEVGPTKESEEDDSEKESDEDCSEKQSEDGSEREFEENGLEKDLDEEGSEKELHENVLDKELEENDSENSEFEDDGSEKVLDEEGSEREFDEDSDEKEEEEDTYEKVFDDESDEKEDEEYADEKGLEAADKKAEEGDADEKLFEESDDKEDEDADGKEVEDADEKLFEDDDSNEKLFDEEEDSSEKLFDDSDERGTLGGFGSVEEGPLSTGSSFILSSDDDDDDI	binds
CDS2 (protein, UniProt O95674 1-445) MTELRQRVAHEPVAPPEDKESESEAKVDGETASDSESRAESAPLPVSADDTPEVLNRALSNLSSRWKNWWVRGILTLAMIAFFFIIIYLGPMVLMIIVMCVQIKCFHEIITIGYNVYHSYDLPWFRTLSWYFLLCVNYFFYGETVTDYFFTLVQREEPLRILSKYHRFISFTLYLIGFCMFVLSLVKKHYRLQFYMFGWTHVTLLIVVTQSHLVIHNLFEGMIWFIVPISCVICNDIMAYMFGFFFGRTPLIKLSPKKTWEGFIGGFFATVVFGLLLSYVMSGYRCFVCPVEYNNDTNSFTVDCEPSDLFRLQEYNIPGVIQSVIGWKTVRMYPFQIHSIALSTFASLIGPFGGFFASGFKRAFKIKDFANTIPGHGGIMDRFDCQYLMATFVNVYIASFIRGPNPSKLIQQFLTLRPDQQLHIFNTLRSHLIDKGMLTSTTEDE	binds
TMX1 (protein, UniProt Q9H3N1 27-280) RRSNVRVITDENWRELLEGDWMIEFYAPWCPACQNLQPEWESFAEWGEDLEVNIAKVDVTEQPGLSGRFIITALPTIYHCKDGEFRRYQGPRTKKDFINFISDKEWKSIEPVSSWFGPGSVLMSSMSALFQLSMWIRTCHNYFIEDLGLPVWGSYTVFALATLFSGLLLGLCMIFVADCLCPSKRRRPQPYPYPSKKLLSESAQPLKKVEEEQEADEEDVSEEEAESKEGTNKDFPQNAIRQRSLGPSLATDKS	binds
